# From patent US20090307791A1, “CALCIUM-ACTIVATED CHLORIDE CHANNEL AND METHODS OF USE THEREOF” (priority 2008, published 2009)
# System: xTMEM16A
# Assay: NFA inhibition of IP3-induced CaCC currents, two electrode voltage clamp, Axolotl oocytes injected with xTMEM16A cRNA
# Type: cell-based
# Settings: 30 μM NFA, scatter plot FIG. 4d
# Experimental: For experiments involving TMEM16 constructs, capped cRNA was in vitro transcribed from linearized plasmids using the mMessage mMachine kit (Ambion). Female Axolotls and Xenopus laevis were purchased from the Ambystoma Genetic Stock Center and Nasco respectively. Oocytes from these animals were defoliculated by treatment with collagenase prepared as described. Usually 5 ng of cRNA (50 ng for mRNA) was injected into defolliculated oocytes. Oocytes were kept at 17° C. in ND96 solution (96 mM NaCl, 2 mM KCl, 1.8 mM CaCl2, 1 mM MgCl2, 10 mM HEPES [pH 7.4]). Two-electrode voltage-clamp measurements were performed at room temperature 2-4 days after injection using a GeneClamp500 amplifier (Axon Instruments) and pClamp 8.0 software (Axon Instruments). Oocytes used in photolysis experiments were injected with […] of 100 μM caged inositol trisphosphate [myo-inositol 1,4,5-trisphosphate, P4(5)-1-(2-nitrophenyl)ethyl ester] […]
# Currents were usually recorded in Ca^2+ free ND96 solution (96 mM NaCl, 2 mM KCl, 3 mM MgCl2, 10 mM HEPES [pH 7.4]). […] The permeability ratios were calculated from shifts in reversal potential ΔErev using the Goldman-Hodgkin-Katz Equation in the form: PX/PCl=(γ·[Cl^−](1)−[Cl^−](2))/[X^−](2) were [Cl^−](1), [Cl^−](2) and [X^−](2) are the external Cl^− and X^− concentration before and after solution exchange. […]
structure (smiles),measurement,value
"O=C(O)c1cccnc1Nc1cccc(C(F)(F)F)c1 [NFA, niflumic acid]","slope b of regression line, CaCC current duration vs remaining current in the presence of NFA",30 mV/s
